Some entries share one result that the patent states for a list of compounds.
System: GluA1-4, GluK1-2, GluK2/GluK5, 5HT3A, GABAA, GABAC, glycine α1, purinergic P2X2 receptors
Test: Off-target two-electrode voltage-clamp recordings, recombinant ligand-gated ion channels in Xenopus oocytes (other than nicotinic)
Type: cell-based, rat
Conditions: 3 μM compound

| Compound | alteration of agonist-induced currents |
| --- | --- |
| O=C(O)CCC(=O)N1N=C(c2c(-c3ccc(Cl)cc3)c3ccccc3[nH]c2=O)CC1c1ccc(Cl)cc1 (racemic) [Compound 997-23, 4-(5-(4-Chlorophenyl)-3-(4-(4-chlorophenyl)-2-oxo-1,2-dihydroquinolin-3-yl)-4,5-dihydro-1H-pyrazol-1-yl)-4-oxobutanoic acid] | less than 10% |
| O=C(O)/C=C/C(=O)N1N=C(c2c(-c3ccc(Br)cc3)c3ccccc3[nH]c2=O)CC1c1ccc(Cl)cc1 (racemic) [Compound 997-33, (E)-4-(3-(4-(4-Bromophenyl)-2-oxo-1,2-dihydroquinolin-3-yl)-5-(4-chlorophenyl)-4,5-dihydro-1H-pyrazol-1-yl)-4-oxobut-2-enoic acid] | less than 10% |

Reference: patent publication US12312328B2, “Pyrazoline dihydroquinolones, pharmaceutical compositions, and uses” (Emory University, priority 2013, dated 2025)
